# Laboratory results from the supplement of paper PMC8728848.
# The list shows a part of the results.
# B1: SUN4 (Saccharomyces cerevisiae), P53616 (protein)
# chain: MGSSHHHHHHSSGLVPRGSHNGSIYGDLADFSGPYEKFEDGTIPCGQFPSGQGVIPISWLDEGGWSGVENTDTSTGGSCKEGSYCSYACQPGMSKTQWPSDQPSDGRSIGGLLCKDGYLYRSNTDTDYLCEWGVDAAYVVSELSNDVAICRTDYPGTENMVIPTYVQAGDSLPLTVVDQDTYYTWQGLKTSAQYYVNNAGISVEDACVWGSSSSGVGNWAPLNFGAGSSDGVAYLSLIPNPNNGNALNFNVKIVAADDSSTVNGECIYENGSFSGGSDGCTVSVTAGKAKFVLYN
# Experiments:
# Test in all cases: glycan array binding signal (z-score within array); higher = stronger binding
# Conditions in all cases: glycan notation: IUPAC condensed, linker removed
# [1] = target: Fuc(a1-2)[Gal(a1-3)]Gal(b1-4)[Fuc(a1-3)]GlcNAc(b1-3)GalNAc
# Method in brief: (§1)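 Glycan array binding is given as a within-array Z-score, which can be read as non-binding when negative. The arrays, 3228 of them, came from the Consortium for Functional Glycomics database and were retained only where the protein sequence was available. Z-scores were averaged across arrays of the same protein sequence at different concentrations or buffers and across linkers.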
# [2] = target: Fuc(a1-2)[Gal(a1-4)]Gal(b1-4)GlcNAc
# Method in brief: as §1
# [3] = target: Fuc(a1-2)[GalNAc(a1-3)]Gal
# Method in brief: as §1
# [4] = target: Fuc(a1-2)[GalNAc(a1-3)]Gal(b1-3)GalNAc(a1-3)[Fuc(a1-2)]Gal(b1-4)GlcNAc
# Method in brief: as §1
# [5] = target: Fuc(a1-2)[GalNAc(a1-3)]Gal(b1-3)GalNAc(b1-3)Gal(a1-4)Gal(b1-4)Glc
# Method in brief: as §1
# [6] = target: Fuc(a1-2)[GalNAc(a1-3)]Gal(b1-3)GlcNAc
# Method in brief: as §1
# [7] = target: Fuc(a1-2)[GalNAc(a1-3)]Gal(b1-3)GlcNAc(b1-2)Man(a1-3)[Fuc(a1-2)[GalNAc(a1-3)]Gal(b1-3)GlcNAc(b1-2)Man(a1-6)]Man(b1-4)GlcNAc(b1-4)GlcNAc
# Method in brief: as §1
# [8] = target: Fuc(a1-2)[GalNAc(a1-3)]Gal(b1-3)GlcNAc(b1-2)Man(a1-3)[Fuc(a1-2)[GalNAc(a1-3)]Gal(b1-3)GlcNAc(b1-2)Man(a1-6)]Man(b1-4)GlcNAc(b1-4)[Fuc(a1-6)]GlcNAc
# Method in brief: as §1
# [9] = target: Fuc(a1-2)[GalNAc(a1-3)]Gal(b1-3)GlcNAc(b1-3)GalNAc
# Method in brief: as §1
# [10] = target: Fuc(a1-2)[GalNAc(a1-3)]Gal(b1-3)GlcNAc(b1-6)GalNAc
# Method in brief: as §1
# [11] = target: Fuc(a1-2)[GalNAc(a1-3)]Gal(b1-4)Glc
# Method in brief: as §1
# [12] = target: Fuc(a1-2)[GalNAc(a1-3)]Gal(b1-4)GlcNAc
# Method in brief: as §1
# [13] = target: Fuc(a1-2)[GalNAc(a1-3)]Gal(b1-4)GlcNAc(b1-2)Man
# Method in brief: as §1
# [14] = target: Fuc(a1-2)[GalNAc(a1-3)]Gal(b1-4)GlcNAc(b1-2)Man(a1-3)[Fuc(a1-2)[GalNAc(a1-3)]Gal(b1-4)GlcNAc(b1-2)Man(a1-6)]Man(b1-4)GlcNAc(b1-4)GlcNAc
# Method in brief: as §1
# [15] = target: Fuc(a1-2)[GalNAc(a1-3)]Gal(b1-4)GlcNAc(b1-2)Man(a1-3)[Fuc(a1-2)[GalNAc(a1-3)]Gal(b1-4)GlcNAc(b1-2)Man(a1-6)]Man(b1-4)GlcNAc(b1-4)[Fuc(a1-6)]GlcNAc
# Method in brief: as §1
# [16] = target: Fuc(a1-2)[GalNAc(a1-3)]Gal(b1-4)GlcNAc(b1-3)Gal(b1-4)GlcNAc
# Method in brief: as §1
# [17] = target: Fuc(a1-2)[GalNAc(a1-3)]Gal(b1-4)GlcNAc(b1-3)Gal(b1-4)GlcNAc(b1-3)Gal(b1-4)GlcNAc
# Method in brief: as §1
# [18] = target: Fuc(a1-2)[GalNAc(a1-3)]Gal(b1-4)GlcNAc(b1-3)GalNAc
# Method in brief: as §1
# [19] = target: Fuc(a1-2)[GalNAc(a1-3)]Gal(b1-4)GlcNAc(b1-3)[Fuc(a1-2)[GalNAc(a1-3)]Gal(b1-4)GlcNAc(b1-6)]GalNAc
# Method in brief: as §1
# [20] = target: Fuc(a1-2)[GalNAc(a1-3)]Gal(b1-4)GlcNAc(b1-6)GalNAc
# Method in brief: as §1
# [21] = target: Fuc(a1-2)[GalNAc(a1-3)]Gal(b1-4)[Fuc(a1-3)]GlcNAc
# Method in brief: as §1
# [22] = target: Fuc(a1-2)[GalNAc(a1-3)]Gal(b1-4)[Fuc(a1-3)]GlcNAc(b1-3)GalNAc
# Method in brief: as §1
# [23] = target: Fuc(a1-2)[GalNAc(a1-4)]Gal(b1-4)GlcNAc
# Method in brief: as §1
binder,measurement,setting,value
B1,glycan array binding signal (z-score),[1],-0.487
same,glycan array binding signal (z-score),[2],0.085
same,glycan array binding signal (z-score),[3],-0.121
same,glycan array binding signal (z-score),[4],0.46
same,glycan array binding signal (z-score),[5],-0.49
same,glycan array binding signal (z-score),[6],-0.069
same,glycan array binding signal (z-score),[7],0.798
same,glycan array binding signal (z-score),[8],1.85
same,glycan array binding signal (z-score),[9],-0.065
same,glycan array binding signal (z-score),[10],-0.525
same,glycan array binding signal (z-score),[11],-0.935
same,glycan array binding signal (z-score),[12],-0.592
same,glycan array binding signal (z-score),[13],0.337
same,glycan array binding signal (z-score),[14],-0.083
same,glycan array binding signal (z-score),[15],-0.441
same,glycan array binding signal (z-score),[16],-0.267
same,glycan array binding signal (z-score),[17],-0.664
same,glycan array binding signal (z-score),[18],-0.052
same,glycan array binding signal (z-score),[19],-0.426
same,glycan array binding signal (z-score),[20],-0.607
same,glycan array binding signal (z-score),[21],-0.591
same,glycan array binding signal (z-score),[22],-0.671
same,glycan array binding signal (z-score),[23],-0.396
